Source: US20250388702A1
Results are given in words; binding and its absence hold for the method and conditions named. Some entries that bind do so weakly or less than the wild type.

Chains of the proteins cited; added tags and fusions are not shown. Lines headed by an entry give the natural chain unless they say otherwise; changes in a name come on top.
UniProt Q8N743: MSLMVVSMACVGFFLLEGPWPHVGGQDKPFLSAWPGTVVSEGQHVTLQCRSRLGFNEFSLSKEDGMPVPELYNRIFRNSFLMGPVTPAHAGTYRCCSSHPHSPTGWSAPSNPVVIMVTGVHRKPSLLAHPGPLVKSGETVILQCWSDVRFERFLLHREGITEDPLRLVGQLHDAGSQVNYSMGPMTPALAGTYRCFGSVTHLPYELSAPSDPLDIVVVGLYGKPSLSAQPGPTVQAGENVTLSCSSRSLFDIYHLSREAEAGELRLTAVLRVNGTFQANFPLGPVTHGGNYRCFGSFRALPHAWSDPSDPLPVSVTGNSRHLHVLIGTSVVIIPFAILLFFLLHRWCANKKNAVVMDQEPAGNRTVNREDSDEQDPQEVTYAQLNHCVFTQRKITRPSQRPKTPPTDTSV

Tests used:
Human KIR3DL3 (human) [1] = target: Human KIR3DL3 (human) (UniProt Q8N743); test: selectivity, HEK293 cell microarray
Human KIR3DL3 (human) [2] = target: Human KIR3DL3 (human) (UniProt Q8N743); test: HEK293 cell microarray, hybridoma supernatant
Human KIR3DL3 (human) [3] = target: Human KIR3DL3 (human) (UniProt Q8N743); test: flow cytometry, KIR3DL3-transfected 300.19 cells
Human KIR3DL3 (human) [4] = target: Human KIR3DL3 (human) (UniProt Q8N743); test: flow cytometry, KIR3DL3-transfected 300.19 cells, 30 min at 4 C, PE goat anti-mouse IgG (H+L) detection
Human KIR3DL3 (human) [5] = target: Human KIR3DL3 (human) (UniProt Q8N743); test: flow cytometry, blocking assay: mAb pre-incubated with KIR3DL3-transfected 300.19 cells, then HHLA2-mIgG2a added; blocked ligand HHLA2-mIgG2a
Human KIR3DL3 (human) [6] = target: Human KIR3DL3 (human) (UniProt Q8N743); test: flow cytometry, blocking assay: mAb pre-incubated with KIR3DL3-transfected 300.19 cells, then HHLA2-mIgG2a added; blocked ligand HHLA2-mIgG2a, detected with Alexa647 mAb 298.6F8
Human KIR3DL3 (human) [7] = target: Human KIR3DL3 (human) (UniProt Q8N743); test: compared with 2F11
Human KIR3DL3 (human) [8] = target: Human KIR3DL3 (human) (UniProt Q8N743); test: Western blot of KIR3DL3

Row | binding (Human KIR3DL3 (human) [1]) | binding (Human KIR3DL3 (human) [2]) | binding (Human KIR3DL3 (human) [3]) | binding (Human KIR3DL3 (human) [4]) | binding (Human KIR3DL3 (human) [5]) | binding (Human KIR3DL3 (human) [6]) | binding (Human KIR3DL3 (human) [7]) | binding (Human KIR3DL3 (human) [8]) | Binder
1 | binds | binds | binds | binds | binds | binds | – | – | KIR3DL3 mAb 574.2.8F7.1.7.4 (antibody, IgG1, V domains shown) VH: DVKLVESGGGLVKPGGSLKLSCAASGFTFSSYCMSWVRQTPEKRLEWVATISSGGNYIYYPDSVKGRFTISRDIAKNTLYLQMSSLKSEDTAMYYCTRGGYDERYFDYWGQGTILTVSS VL: DIQMTQSPASLSASVGETVTITCRASENIYSYLAWYQQKQGKSPQLLVYNAKTLTEGMPSRFSGSGSGTQFSLRINSLQPEDFGSYYCQHHHGTPRTFGGGTKLEIK
2 | – | binds | – | – | – | – | – | – | KIR3DL3 mAb 574.2.1D12.1.6 (antibody, IgG2a, V domains shown) VH: QVQLQQSGAELVRPGTSVKVSCKASGYAFNNYLIEWVKQRPGQGLEWIGVINPGSGGTNDNEKFRGKATLTADTSSSTAYMQLTSLTSDDSAVYFCARGNYYGTRDWYFDVWGAGTTVTVSS VL: QIVLTQSPAIMSASLGARVTMTCTASSSVSSSSLHWYQQKPGSSPKLWIYSISSLASGVPARFSGSGSGTSYSLTISSLEAEDAATYYCHQYHRSPPTFGGGTKLEIK
3 | – | binds | – | – | – | – | – | – | KIR3DL3 mAb 574.2.8C2.12.3.10 (antibody, IgG2a, V domains shown) VH: KVQLQQSGAELVRPGTSVKVSCKASGYAFTNYLIEWVKQRPGQGLEWIGVINPGSGGTNDNEKFRDKATLTADKSSSTAYMQLSSLTSDDSAVYFCARGNYYGTTDWYFDVWGAGTTVTVSS VL: QIVLTQSPAIMSASLGERVTMTCTASASVSSSSLHWYQQKPGSPPKFWIYSTTNLASGVPTRFSGSGSGTSYSLTISNMEAEDAATYYCHQYHRSPPTFGGGTKLEIK
4 | binds | binds | – | binds | – | binds | – | – | KIR3DL3 mAb 574.2.1C7.D2.6.5 (antibody, IgG1, V domains shown) VH: QVQLQQSGAELMKPGASVKISCKATGYTFSNYWIEWIKQRPGHGLEWIGEILPGSGSTNYNEKFKGKATFTAATSSNTAYMQLSSLTSEDSAVYYCARRVPDYYGSRYYFDYWGQGTTLTVSS VL: NIVMTQSPKSMSMSVGERVTLSCKASENVGIYVSWYQQKPEQSPKLLIYGASNRYTGVPDRFTGSGSATDFTLTISSVQAEDLADYHCGQSYNYPFTFGSGTKLEIK
5 | binds | binds | binds | binds | binds | binds | binds | – | KIR3DL3 mAb 574.2.1G7.9.9 (antibody, IgG2b, V domains shown) VH: ELKLEESGGGLVQPGGSMKLSCVASGFTFSNYWMNWVRQSPEKGLEWIAEIRLKSNNYATHYAESVKGRFTISRDDSKSSVYLQMNNLRAEDTGIFYCTPFYGSSFPYWGQGTLVTVSA VL: DIQMTQTTSSLSASLGDRVTISCRASQDISNYLNWYQQKPDGTVKLLIYYTSILQLGVPPRFSGSGSGTDYSLTISNLEQEDIATYFCQQGNTLPFTFGAGTKVELK
6 | binds | binds | binds | binds | binds | binds | – | binds | KIR3DL3 mAb 574.2.2F11.2.7.4 (antibody, IgG2b, V domains shown) VH: DVQLVESGGGLVQPGGSRKLSCAASGFTFSYFGMHWVRRAPEKGLEWVAFISSDSTTIYYTDTVKGRFTISRDNPKNTLFLQMTSLRSEDTAIYYCARFYDGAMDYWGQGTSVTVST VL: DIVMTQSQKFMSTSVGDRVSITCKASQSVRTAVAWYQQKPGQSPKVLIYLASNRHTGVPDRFTGSGSGTDFTLTISNVQSEDLADYFCLQHWNYPLTFGAGTKLELK
7 | binds | binds | – | binds | – | binds | – | – | KIR3DL3 mAb 574.2.2H1.11.6 (antibody, IgG2b, V domains shown) VH: DVQLVESGGGLVQPGGSRKLSCAASGFTFSYFGMHWVRRAPEKGLEWVAFISSDSTTIYYTDTVKGRFTISRDNPKNTLFLQMTSLRSEDTAIYYCARFYDGAMDYWGQGTSVTVST VL: DIVMTQSQKFMSTSVGDRVSITCKASQSVRTAVAWYQQKPGQSPKVLIYLASNRHTGVPDRFTGSGSGTDFTLTISNVQSEDLADYFCLQHWNYPLTFGAGTKLELK
8 | binds | binds | – | binds | – | binds | – | – | KIR3DL3 mAb 574.2.2D8.6.9 (antibody, IgG2b, V domains shown) VH: DVQLVESGGGLVQPGGSRKLSCAASGFTFSYFGMHWVRRAPEKGLEWVAFISSDSTTIYYTDTVKGRFTISRDNPKNTLFLQMTSLRSEDTAIYYCARFYDGAMDYWGQGTSVTVST VL: DIVMTQSQKFMSTSVGDRVSITCKASQSVRTAVAWYQQKPGQSPKVLIYLASNRHTGVPDRFTGSGSGTDFTLTISNVQSEDLADYFCLQHWNYPLTFGAGTKLELK
